Laboratory results taken from patent publication US9636314B2, “Medicament for treatment of non-insulin dependent diabetes mellitus, hypertension and/or metabolic syndrome” (Stevia Limited, priority 2001, dated 2017).
Some entries share one result that the patent states for a list of compounds.

Test system: isolated mouse islets
Test: glucose-stimulated insulin secretion from isolated mouse islets
Type: cell-based
Conditions: for glucose concentration at and above which insulin secretion was potentiated: 10^−3 mol/l stevioside, 10^−6 mol/l steviol, glucose 0 to 16.7 mmol/l; for concentration at which a stimulatory effect was found: mouse islets, further tests
Experimental: Islet from 6-10 NMRI mice were isolated and incubated in the presence of 16.7 mmol/l and 10^−9-10^−3 mol/l stevioside or 10^−9-10^−3 mol/l steviol. The results of these tests are illustrated in FIGS. 4a and 4b where each column represents mean±SEM from 24 incubations of single islets. Black bars in FIG. 4a indicate that stevioside is present and hatched bars indicate that stevioside is absent. Black bars in FIG. 4b indicate that steviol is present and hatched bars indicate that steviol is absent. The influence of the maximal stimulatory doses of 10^−3 mol/l stevioside and 10^−6 mol/l steviol was studied in NMRI mouse islets over a range between 0 and 16.7 mmol/l glucose. […] Black bars in FIG. 7a indicate that stevioside is present and hatched bars indicate that stevioside is absent. Black bars in FIG. 7b indicate that steviol is present and hatched bars indicate that steviol is absent.

SMILES	glucose concentration at and above which insulin secretion was potentiated	concentration at which a stimulatory effect was found
C=C1C[C@@]23CC[C@H]4[C@@](C)(CCC[C@@]4(C)C(=O)O)[C@@H]2CC[C@]1(O)C3 [steviol]	≥ 8.3 mmol/L	above 0.1 nM
C=C1C[C@@]23CC[C@H]4[C@@](C)(CCC[C@@]4(C)C(=O)O[C@@H]4O[C@H](CO)[C@@H](O)[C@H](O)[C@H]4O)[C@@H]2CC[C@]1(O[C@@H]1O[C@H](CO)[C@@H](O)[C@H](O)[C@H]1O[C@@H]1O[C@H](CO)[C@@H](O)[C@H](O)[C@H]1O)C3 [stevioside]	≥ 8.3 mmol/L	above 0.1 nM
